Results as given in patent publication US11564920B2, “5-heteroaryl-1H-pyrazol-3-amine derivative” (Sumitomo Pharma Co., Ltd., priority 2020, dated 2023).
For at least one compound, name, drawing or mass did not settle the structure. Some entries repeat one wording, which the source may state once for all of them.

Protein sequences, listed by entry. Tags and fused reporters are not part of them. Lines headed by an entry give the natural chain unless they say otherwise; changes in a name come on top.
UniProt O14757: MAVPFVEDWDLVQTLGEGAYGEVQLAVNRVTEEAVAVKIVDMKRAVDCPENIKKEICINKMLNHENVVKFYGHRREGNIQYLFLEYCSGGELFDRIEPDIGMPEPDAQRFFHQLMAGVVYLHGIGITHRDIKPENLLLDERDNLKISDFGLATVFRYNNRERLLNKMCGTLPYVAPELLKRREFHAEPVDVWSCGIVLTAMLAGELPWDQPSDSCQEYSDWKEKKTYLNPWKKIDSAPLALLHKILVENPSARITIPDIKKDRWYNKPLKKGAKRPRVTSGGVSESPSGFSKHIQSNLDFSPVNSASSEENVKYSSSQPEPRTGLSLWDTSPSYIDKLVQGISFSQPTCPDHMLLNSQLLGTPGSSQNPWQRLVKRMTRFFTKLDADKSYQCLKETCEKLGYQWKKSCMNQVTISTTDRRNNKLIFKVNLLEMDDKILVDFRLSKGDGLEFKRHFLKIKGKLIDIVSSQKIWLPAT

Tests used:
[1] = target: CHK1 (Homo sapiens (Human), UniProt O14757); assay: CHK1 inhibitory activity test (IMAP TR-FRET); format: biochemical; settings: compared with prexasertib
Description: IMAP TR-FRET Screening Express Kit (R8160) was obtained from Molecular Devices. […] FAM-PKAtide (R7255, Molecular Devices) and FAM-Phospho-PKAtide (R7304, Molecular Devices) were admixed after dilution, and calibration standard systems for phosphorylation levels from 0 to 100% were created. 5 μL of a compound dissolved in a 0.4% DMSO solution was added to a 384 well plate. A compound study group to which 5 μL of each of CHK1, CHK1tide, and ATP was added, and a standard group to which 20 μL of standard was added were created, and subjected to a kinase reaction for 3 hours at 30° C. Subsequently, 60 μL of Binding Reagent (80% Buffer A, 20% Buffer B, 1:600 Binding Reagent, 1:400 Tb-Donor) was added for a binding reaction for 2 hours at room temperature.

[2] = tested on: ES-2 cells; assay: Cell growth suppression experiment; format: cell-based; settings: compared with prexasertib
Description: ES-2 cells were obtained from the American Type Culture Collection (ATCC). These cells were cultured at 37° C. in the presence of 5% CO2 in a 10% fetal bovine serum, […] penicillin/streptomycin containing McCoy's 5a medium.
500 cells were seeded for each well in a 384-well plate, and the evaluated compound was added so that the final concentration of DMSO would be 0.1% to culture the cells for 2 days. After completion of the culture, the cell viability rate was calculated using CellTiter-Glo® 3D Reagent (Promega, G968B).

Structure (SMILES) | effect of suppressing CHK1 activity (in words) [1] | cell growth suppression effect (in words) [2]
COc1cncc(OCC2(F)CNC2)c1-c1cc(Nc2cnc(C#N)cn2)n[nH]1 [Example 5, 5-[(5-{3-[(3-fluoroazetidin-3-yl)methoxy]-5-methoxypyridin-4-yl}-1H-pyrazol-3-yl)amino]pyrazine-2-carbonitrile] | more potent effect of suppressing CHK1 activity than prexasertib | excellent cell growth suppression effect that is equivalent to that of prexasertib
COc1ncnc(OCC2(CN)CC2)c1-c1cc(Nc2cnc(C#N)cn2)n[nH]1 [Example 23, 5-{[5-(4-{[1-(aminomethyl)cyclopropyl]methoxy}-6-methoxypyrimidin-yl)-1H-pyrazol-3-yl]amino}pyrazine-2-carbonitrile] |  | excellent cell growth suppression effect that is equivalent to that of prexasertib
COc1cncc(OC[C@@H](C)CN)c1-c1cc(Nc2cnc(C#N)cn2)n[nH]1 [Example 27] |  | excellent cell growth suppression effect that is equivalent to that of prexasertib
COc1cncc(OC[C@H](C)CN)c1-c1cc(Nc2cnc(C#N)cn2)n[nH]1 [Example 28] | more potent effect of suppressing CHK1 activity than prexasertib | excellent cell growth suppression effect that is equivalent to that of prexasertib
